Source: US20110098177A1, “METHODS AND COMPOSITIONS OF PLANT MICRONUTRIENTS” (NOVUS INTERNATIONAL INC., priority 2006, published 2011)
Some of these results come from one statement about several compounds together.

System: Florida-47 tomato
Assay type: in vivo
Conditions: iron concentration of 0.002% to 0.026%; depending on the plant and particular compound; scale 0-10
Description: The following experiments were performed in a green house during the fall of 2007 at GCREC, Balm, University of Florida. Fifteen products, at 3 different application rates were examined. The plot size was 2-gallon pots. Crop set-up, procedures and variables were as follows.
Transplants of ‘Florida-47’ tomato and ‘Aristotle’ bell pepper plants in the 4-true leaf stage (about 6 inches tall) were planted in 2-gal pots on Aug. 27, 2007. Pots were filled with a commercially available planting medium. This medium was selected based on the mineral composition of the products to be applied without providing significant nutritional inputs to the crops. Irrigation was provided with drip lines delivering between 0.50 and 0.33 gal/day/pot for tomato and bell pepper, respectively, and the crops were irrigated three times per day. No foliar pesticides were necessary. […]
Medium nutrient concentration was determined 1 week before treatment. […] The foliar tissue analysis was performed at 6 WAT and the concentration of N, P, K, Mg, Ca, S, B, Zn, Mn, Fe, and Cu was determined by a commercial laboratory. Plant toxicity was determined at 4 WAT by using a 0-10 visual scale, where 0=no visible damage and 10=total plant death. […]
Data were analyzed using a general linear model, and means were separated using orthogonal contrasts at the 5% significance level.

## EDTA chelated iron [BIOX-EDI]
  Toxicity scale scores: 7-9
